# Source: PubChem BioAssay (NCATS)
# “And” between values parts separate entries of the source, which are not always exact repeats. Identical values can stand only once. Some of the results follow. The main result of the screen is listed elsewhere. These columns were measured beside it and carry no call. Compounds called inactive in the main read-out are mostly missing here. For part of these data: Potencies come from curve fits of mixed quality, noted in brackets. Numbered stars: 1 amine (or outer) side, 2 acyl side, 3 side chain; on linkers, the order of the positions; unused ones are H or OH. Bridge positions count the residues as written; N and C are the ends. Square brackets hold non-standard residues; d marks the D form. Peptide text beside a SMILES is read from it. I, II: the chains in the order shown. Actinocin(9to1) = Cc1c2oc3c(C)ccc(C(=O)[*:1])c3nc-2c(C(=O)[*:2])c(N)c1=O; NMeV = CN[C@H](C(=O)O)C(C)C; Sar = CNCC(=O)O
# Columns and labels:
# [1] = qHTS assay for small molecule antagonists of androgen receptor signaling (AID 588516); settings: AR-UAS-bla HEK293, beta-lactamase ratio, antagonist mode, 16 h
# How it was run: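 Cells were plated and incubated 5 h, compounds added in titration, then R1881 (10 nM final) as agonist. After 16 h at 37 C, CCF4 substrate was loaded for 2 h at room temperature and fluorescence measured.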
# [2] = qHTS assay for small molecule antagonists of peroxisome proliferator-activated receptor delta signaling (AID 588535); settings: HEK293T PPARd-UAS-bla, beta-lactamase FRET ratio, 18 h; 460 nm channel;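 further: cells co-treated with a PPAR-delta agonist as stimulator during compound exposure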
# How it was run: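 Antagonist-mode qHTS using GeneBLAzer PPAR-delta-UAS-bla HEK293T cells; compound exposure 18 hrs at 37 C over a titration. Ratiometric CCF4 fluorescence at 460/530 nm; concentration-response points fitted to the Hill equation.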
# [3] = qHTS assay for small molecule antagonists of peroxisome proliferator-activated receptor gamma signaling (AID 588537); settings: HEK293 PPARg-UAS-bla, beta-lactamase ratio, antagonist mode; measured here: W460 blue channel
# How it was run: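 Cell-based beta-lactamase assay; GW9662 served as the antagonist control. Stimulation used rosiglitazone, final 50 nM, 16 h, 37 C.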
# [4] = qHTS assay for small molecule agonists of retinoid X receptor alpha signaling (AID 588544); settings: HEK293T RXRa-UAS-bla, beta-lactamase reporter, 18 h; 530 nm emission
# [5] = qHTS assay for small molecule antagonists of retinoid X receptor alpha signaling (AID 588546); settings: HEK293T RXRa-UAS-bla, beta-lactamase ratio, antagonist mode; measured here: W530 green channel, cytotoxicity proxy;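 further: cells stimulated with 9-cis-retinoic acid as agonist; on the % scale 0 is the no-effect control and ±100 the full control effect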
# How it was run: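 Beta-lactamase reporter inhibition, read as CCF4 fluorescence ratio (ex 405, em 460/530 nm) after 2 h at RT. HEK293T UAS-bla cells, 2500/well, were stimulated with 9-cis-RA at 500 or 100 nM final alongside test compound for 18 h at 37 C.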
# [6] = qHTS assay for small molecule antagonists of vitamin D receptor signaling (AID 588541); settings: HEK293T VDR-UAS-bla, beta-lactamase ratio, antagonist mode; measured here: W460 blue channel (cell viability)
# [7] = S16 Schwann cell PMP22 intronic element beta-lactamase assay (AID 624044); settings: S16 rat Schwann cells, PMP22 element beta-lactamase FRET, 24 h; measured here: 460 nm blue channel
# How it was run: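 Beta-lactamase reporter under a PMP22 intronic regulatory element in stable S16 rat Schwann cells; 24 h compound exposure. 460 nm blue signal normalized between DMSO (0%) and potassium clavulanate, with 535 nm FRET tracking viability; curves classed by r2 and response.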
# [8] = qHTS assay for small molecule antagonists of glucocorticoid receptor signaling (AID 588533); settings: HeLa MMTV-bla, GRE beta-lactamase ratio, antagonist mode, 18 h; measured here: W530 channel AC50
# [9] = measured here: W460 blue channel fit
# [10] = measured here: W530 green channel, cytotoxicity/artifact
structure (smiles),measurement,setting,value
C[C@@H]1CC2(OC3C[C@@]4(C)C5=CC[C@H]6C(C)(C)C(O[C@@H]7OC[C@@H](O)[C@H](O)[C@H]7O)CC[C@@]67C[C@@]57CC[C@]4(C)C31)OC(O)C1(C)OC21 (stereo partly specified),AC50,[1]; [9],"44.7 µM [falling, partial curve, poor fit]"
same,max response,[2],69.2%
same,AC50,[3],"50.1 µM [rising, single point]"
same,max response,[4],45.3%
same,max response,[5],28%
"Cc1c2oc3c(C)ccc(C(=O)N[C@@H]4C(=O)N[C@H](C(C)C)C(=O)N5CCC[C@H]5C(=O)N(C)CC(=O)N(C)[C@@H](C(C)C)C(=O)O[C@@H]4C)c3nc-2c(C(=O)N[C@@H]2C(=O)N[C@H](C(C)C)C(=O)N3CCC[C@H]3C(=O)N(C)CC(=O)N(C)[C@@H](C(C)C)C(=O)O[C@@H]2C)c(N)c1=O (I: T[dV]P[Sar][NMeV] / II: T[dV]P[Sar][NMeV]; ester I:1-I:C, II:1-II:C; linker I:N-II:N via Actinocin(9to1))",AC50,[1]; [9],"28.2 nM [falling, full curve] and 39.8 nM [falling, full curve]"
same,AC50,[1]; [10],"20 nM [rising, full curve] and 25.1 nM [rising, full curve]"
same,max response,[2],-99.5% and -82.9%
same,AC50,[3],"112 nM [falling, full curve] and 178 nM [falling, full curve]"
same,AC50,[6],"22.4 nM [falling, full curve] and 79.4 nM [falling, full curve]"
same,max response,[4],16.5% and -0.559%
same,AC50,[7],"0.00891 µM [falling, full curve, poor fit]"
Oc1ccc(Nc2ccccc2)cc1,AC50,[1]; [9],"44.7 µM [falling, partial curve, poor fit]"
same,AC50,[1]; [10],"6.31 µM [rising, full curve, poor fit]"
same,max response,[2],84.9%
same,max response,[4],51.8%
same,max response,[5],13.4%
Cc1ccc(S(=O)(=O)Oc2ccc(N=Nc3ccc(-c4ccc(N=Nc5c(O)ccc6cc(S(=O)(=O)O)cc(S(=O)(=O)O)c56)c(C)c4)cc3C)cc2)cc1,AC50,[1]; [9],"0.0501 µM [falling, full curve, poor fit]"
same,max response,[2],41.5%
same,AC50,[3],"14.1 µM [falling, full curve]"
COC(=O)c1ccc(CNS(C)(=O)=O)cc1S(=O)(=O)NC(=O)Nc1nc(OC)cc(OC)n1,AC50,[1]; [9],"0.447 µM [falling, full curve, poor fit]"
same,max response,[2],-59.5%
COc1ccc(C(=O)c2ccccc2)c(O)c1,AC50,[1]; [9],"0.0126 µM [falling, full curve, poor fit]"
same,AC50,[3],"50.1 µM [rising, single point]"
same,max response,[4],31.6% and 37.9%
OCCO,AC50,[1]; [9],"31.6 µM [falling, partial curve, poor fit]"
same,max response,[2],37%
same,AC50,[3],"56.2 µM [rising, single point]"
CCC(=O)C1C(=O)CC(C(=O)O)CC1=O (stereo unspecified),AC50,[1]; [9],"0.0355 µM [rising, full curve, poor fit]"
same,max response,[2],-55.4%
same,max response,[5],4.99%
CC(C)(O)CCC(C)(C)O,AC50,[1]; [9],"7.08 µM [falling, partial curve, poor fit]"
same,max response,[2],-7.38%
O=C(O)CN(CCCN(CC(=O)O)CC(=O)O)CC(=O)O,AC50,[1]; [10],"28.2 µM [rising, single point]"
same,AC50,[3],"17.8 µM [falling, partial curve, poor fit]"
same,AC50,[6],"15.8 µM [falling, full curve, poor fit]"
same,max response,[5],-5.69%
CC(=O)Nc1ccc(C(=O)CCl)cc1,AC50,[1]; [9],"50.1 µM [falling, single point]"
same,max response,[2],-74.2% and -77.2%
same,AC50,[6],"22.4 µM [falling, full curve, poor fit] and 25.1 µM [falling, full curve, poor fit]"
same,max response,[4],-1.55% and 45.5%
same,max response,[5],-6.08% and -38.7%
C1CCC2OC2C1 (stereo unspecified),AC50,[1]; [9],"50.1 µM [falling, partial curve, poor fit]"
same,AC50,[3],"70.8 µM [rising, single point]"
CO/N=C1\C[C@]2(C[C@@H]3C[C@@H](C/C=C(\C)C[C@@H](C)/C=C/C=C4\CO[C@@H]5[C@H](O)C(C)=C[C@@H](C(=O)O3)[C@]45O)O2)O[C@H](/C(C)=C/C(C)C)[C@H]1C,AC50,[1]; [9],"28.2 µM [falling, partial curve]"
same,AC50,[1]; [10],"25.1 µM [rising, single point]"
same,AC50,[8],"10 µM [falling, full curve]"
same,max response,[2],-51.1%
same,AC50,[6],"22.4 µM [falling, full curve]"
same,max response,[4],-54.7%
same,max response,[5],-45.2%
